Results from the supplement of paper PMC7666118.
The list shows a part of the results.

Chains of the proteins cited; added tags and fusions are not shown. Lines headed by an entry give the natural chain unless they say otherwise; changes in a name come on top.
UniProt Q06055: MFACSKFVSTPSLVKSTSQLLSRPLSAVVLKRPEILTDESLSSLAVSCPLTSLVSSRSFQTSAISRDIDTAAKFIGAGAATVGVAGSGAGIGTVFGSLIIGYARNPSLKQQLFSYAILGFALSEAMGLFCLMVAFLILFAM
UniProt Q9H8M7: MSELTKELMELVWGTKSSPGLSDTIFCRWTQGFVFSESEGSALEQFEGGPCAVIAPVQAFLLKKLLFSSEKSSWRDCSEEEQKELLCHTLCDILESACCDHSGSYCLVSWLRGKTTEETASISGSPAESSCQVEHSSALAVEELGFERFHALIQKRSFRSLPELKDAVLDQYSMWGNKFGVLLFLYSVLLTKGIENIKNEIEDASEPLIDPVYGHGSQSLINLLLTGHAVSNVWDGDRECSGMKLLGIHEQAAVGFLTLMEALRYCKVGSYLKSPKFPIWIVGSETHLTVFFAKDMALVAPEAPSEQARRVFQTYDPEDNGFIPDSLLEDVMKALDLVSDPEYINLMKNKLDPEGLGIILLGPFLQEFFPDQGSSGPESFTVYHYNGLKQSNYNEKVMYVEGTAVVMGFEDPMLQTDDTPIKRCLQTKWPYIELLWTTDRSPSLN
UniProt Q8NB49: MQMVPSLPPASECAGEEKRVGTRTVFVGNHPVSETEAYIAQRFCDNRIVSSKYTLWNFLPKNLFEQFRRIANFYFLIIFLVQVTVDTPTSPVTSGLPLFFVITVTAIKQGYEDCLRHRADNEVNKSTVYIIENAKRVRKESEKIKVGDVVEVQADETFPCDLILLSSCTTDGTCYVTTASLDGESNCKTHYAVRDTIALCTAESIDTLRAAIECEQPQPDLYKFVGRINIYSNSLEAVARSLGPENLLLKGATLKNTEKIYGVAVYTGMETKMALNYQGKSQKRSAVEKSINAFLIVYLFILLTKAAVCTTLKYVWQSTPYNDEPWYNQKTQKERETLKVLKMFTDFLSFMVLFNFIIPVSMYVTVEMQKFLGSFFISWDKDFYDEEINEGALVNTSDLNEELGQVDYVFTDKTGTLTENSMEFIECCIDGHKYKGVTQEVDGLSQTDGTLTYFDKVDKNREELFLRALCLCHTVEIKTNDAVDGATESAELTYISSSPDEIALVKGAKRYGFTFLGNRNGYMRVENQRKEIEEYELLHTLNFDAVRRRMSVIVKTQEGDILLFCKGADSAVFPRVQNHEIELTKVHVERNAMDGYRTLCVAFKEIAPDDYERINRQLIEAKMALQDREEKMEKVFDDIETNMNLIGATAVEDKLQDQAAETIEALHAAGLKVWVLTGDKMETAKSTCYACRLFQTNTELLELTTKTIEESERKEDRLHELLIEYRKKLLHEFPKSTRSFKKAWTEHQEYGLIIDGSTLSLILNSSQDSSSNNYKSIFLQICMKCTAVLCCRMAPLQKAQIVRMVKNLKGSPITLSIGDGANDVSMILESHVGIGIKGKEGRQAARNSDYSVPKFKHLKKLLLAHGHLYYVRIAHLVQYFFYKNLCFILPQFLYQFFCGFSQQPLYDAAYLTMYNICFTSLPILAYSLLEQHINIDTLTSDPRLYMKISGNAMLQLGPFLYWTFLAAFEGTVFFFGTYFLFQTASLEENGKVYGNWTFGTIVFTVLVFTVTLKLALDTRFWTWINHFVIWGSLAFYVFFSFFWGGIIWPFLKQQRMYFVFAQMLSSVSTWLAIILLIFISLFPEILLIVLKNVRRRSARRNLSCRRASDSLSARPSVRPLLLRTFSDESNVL
UniProt P48047: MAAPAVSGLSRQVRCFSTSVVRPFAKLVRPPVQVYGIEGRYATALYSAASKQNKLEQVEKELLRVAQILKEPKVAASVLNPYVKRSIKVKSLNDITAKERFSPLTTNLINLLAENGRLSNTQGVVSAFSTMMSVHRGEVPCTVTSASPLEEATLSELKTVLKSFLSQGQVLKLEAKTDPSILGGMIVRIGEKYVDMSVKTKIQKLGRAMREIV
UniProt P30043: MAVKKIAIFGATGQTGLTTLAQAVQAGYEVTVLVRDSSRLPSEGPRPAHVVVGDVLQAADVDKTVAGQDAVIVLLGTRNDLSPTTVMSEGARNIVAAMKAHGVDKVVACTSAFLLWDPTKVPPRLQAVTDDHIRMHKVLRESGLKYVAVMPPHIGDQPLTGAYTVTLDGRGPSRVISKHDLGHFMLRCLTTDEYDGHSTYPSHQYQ
UniProt Q13323: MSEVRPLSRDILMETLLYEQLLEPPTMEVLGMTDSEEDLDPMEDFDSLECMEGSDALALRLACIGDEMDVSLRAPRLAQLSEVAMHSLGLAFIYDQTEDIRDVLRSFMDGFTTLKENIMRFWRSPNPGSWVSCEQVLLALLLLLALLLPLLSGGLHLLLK
UniProt Q07812, whole entry: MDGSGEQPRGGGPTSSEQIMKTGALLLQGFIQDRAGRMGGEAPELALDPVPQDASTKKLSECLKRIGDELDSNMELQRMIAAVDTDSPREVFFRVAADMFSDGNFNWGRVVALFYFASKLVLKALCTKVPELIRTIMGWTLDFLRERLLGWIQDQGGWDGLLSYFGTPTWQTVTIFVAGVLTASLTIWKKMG
UniProt Q9NY97: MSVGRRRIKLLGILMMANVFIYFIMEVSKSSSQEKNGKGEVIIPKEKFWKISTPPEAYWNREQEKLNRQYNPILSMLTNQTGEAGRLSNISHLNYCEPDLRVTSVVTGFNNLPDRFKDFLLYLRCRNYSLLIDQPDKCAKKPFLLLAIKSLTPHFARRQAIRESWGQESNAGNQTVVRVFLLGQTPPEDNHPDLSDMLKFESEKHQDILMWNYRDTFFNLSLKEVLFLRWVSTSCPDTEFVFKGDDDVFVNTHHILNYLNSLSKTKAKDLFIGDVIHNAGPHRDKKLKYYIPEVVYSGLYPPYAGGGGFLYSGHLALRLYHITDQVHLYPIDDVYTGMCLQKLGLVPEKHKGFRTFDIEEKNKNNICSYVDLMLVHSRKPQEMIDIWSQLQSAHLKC
UniProt Q9NYF8, whole entry: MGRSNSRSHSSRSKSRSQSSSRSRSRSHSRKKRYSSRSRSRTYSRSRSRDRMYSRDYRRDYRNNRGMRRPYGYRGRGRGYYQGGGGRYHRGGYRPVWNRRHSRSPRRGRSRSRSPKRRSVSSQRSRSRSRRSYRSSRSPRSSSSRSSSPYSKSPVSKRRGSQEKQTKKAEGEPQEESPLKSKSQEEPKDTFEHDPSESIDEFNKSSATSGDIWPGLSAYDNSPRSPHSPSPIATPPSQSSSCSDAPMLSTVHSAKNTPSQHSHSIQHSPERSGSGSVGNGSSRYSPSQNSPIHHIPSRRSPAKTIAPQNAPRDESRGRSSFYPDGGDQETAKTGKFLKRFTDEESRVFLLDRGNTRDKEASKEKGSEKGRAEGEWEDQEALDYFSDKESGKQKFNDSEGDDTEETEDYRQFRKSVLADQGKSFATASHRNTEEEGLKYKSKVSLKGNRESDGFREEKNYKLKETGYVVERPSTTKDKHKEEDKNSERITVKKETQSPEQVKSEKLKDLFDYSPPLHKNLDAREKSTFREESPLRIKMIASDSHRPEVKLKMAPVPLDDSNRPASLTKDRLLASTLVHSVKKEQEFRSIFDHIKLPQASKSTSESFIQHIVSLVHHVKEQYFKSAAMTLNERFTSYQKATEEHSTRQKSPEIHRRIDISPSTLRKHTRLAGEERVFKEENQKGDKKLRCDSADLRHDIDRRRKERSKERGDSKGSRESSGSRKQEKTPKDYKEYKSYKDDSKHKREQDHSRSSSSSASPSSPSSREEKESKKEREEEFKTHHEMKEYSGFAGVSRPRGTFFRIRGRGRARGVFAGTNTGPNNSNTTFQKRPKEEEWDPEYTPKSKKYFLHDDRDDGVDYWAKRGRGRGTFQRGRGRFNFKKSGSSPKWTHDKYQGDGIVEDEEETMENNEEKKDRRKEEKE
UniProt Q13490, whole entry: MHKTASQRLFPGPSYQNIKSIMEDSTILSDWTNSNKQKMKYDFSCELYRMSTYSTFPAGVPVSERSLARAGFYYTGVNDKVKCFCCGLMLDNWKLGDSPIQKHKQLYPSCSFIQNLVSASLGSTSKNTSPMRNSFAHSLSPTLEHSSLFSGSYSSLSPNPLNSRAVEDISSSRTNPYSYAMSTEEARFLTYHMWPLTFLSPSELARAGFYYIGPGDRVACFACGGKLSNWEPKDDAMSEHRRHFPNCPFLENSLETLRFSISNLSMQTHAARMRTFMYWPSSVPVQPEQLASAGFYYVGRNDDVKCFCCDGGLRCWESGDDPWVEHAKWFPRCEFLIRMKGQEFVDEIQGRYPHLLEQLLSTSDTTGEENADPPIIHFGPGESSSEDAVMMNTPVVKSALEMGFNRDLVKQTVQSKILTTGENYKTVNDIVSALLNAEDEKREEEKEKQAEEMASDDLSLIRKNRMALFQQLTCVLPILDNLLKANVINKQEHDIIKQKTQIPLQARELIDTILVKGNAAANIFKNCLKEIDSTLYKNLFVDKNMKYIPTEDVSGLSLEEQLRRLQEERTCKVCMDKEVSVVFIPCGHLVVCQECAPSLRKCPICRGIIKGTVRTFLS
UniProt Q5T9A4: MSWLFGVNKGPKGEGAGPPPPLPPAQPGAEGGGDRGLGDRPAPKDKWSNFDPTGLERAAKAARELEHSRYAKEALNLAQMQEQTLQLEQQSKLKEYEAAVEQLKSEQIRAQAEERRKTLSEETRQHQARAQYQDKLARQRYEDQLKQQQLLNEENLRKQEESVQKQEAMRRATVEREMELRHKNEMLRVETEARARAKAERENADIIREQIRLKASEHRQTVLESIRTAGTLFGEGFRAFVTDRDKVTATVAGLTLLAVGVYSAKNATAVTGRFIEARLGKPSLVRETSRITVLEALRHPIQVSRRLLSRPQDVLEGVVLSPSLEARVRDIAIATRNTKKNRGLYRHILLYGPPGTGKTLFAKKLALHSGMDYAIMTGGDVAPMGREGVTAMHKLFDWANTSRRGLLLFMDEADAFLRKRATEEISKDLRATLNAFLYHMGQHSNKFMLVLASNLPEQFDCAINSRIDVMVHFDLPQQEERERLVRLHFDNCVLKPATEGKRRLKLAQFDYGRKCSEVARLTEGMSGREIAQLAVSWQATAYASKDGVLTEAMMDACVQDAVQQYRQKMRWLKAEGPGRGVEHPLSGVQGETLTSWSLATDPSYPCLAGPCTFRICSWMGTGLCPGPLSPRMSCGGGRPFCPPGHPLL
UniProt Q9BUT1: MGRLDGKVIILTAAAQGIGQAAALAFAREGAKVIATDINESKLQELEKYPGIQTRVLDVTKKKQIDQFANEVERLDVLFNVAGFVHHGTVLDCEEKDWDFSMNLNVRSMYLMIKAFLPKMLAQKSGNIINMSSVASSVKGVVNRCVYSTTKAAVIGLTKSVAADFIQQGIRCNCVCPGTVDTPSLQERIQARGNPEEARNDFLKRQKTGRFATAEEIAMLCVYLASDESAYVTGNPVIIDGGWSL
UniProt Q3B7T1: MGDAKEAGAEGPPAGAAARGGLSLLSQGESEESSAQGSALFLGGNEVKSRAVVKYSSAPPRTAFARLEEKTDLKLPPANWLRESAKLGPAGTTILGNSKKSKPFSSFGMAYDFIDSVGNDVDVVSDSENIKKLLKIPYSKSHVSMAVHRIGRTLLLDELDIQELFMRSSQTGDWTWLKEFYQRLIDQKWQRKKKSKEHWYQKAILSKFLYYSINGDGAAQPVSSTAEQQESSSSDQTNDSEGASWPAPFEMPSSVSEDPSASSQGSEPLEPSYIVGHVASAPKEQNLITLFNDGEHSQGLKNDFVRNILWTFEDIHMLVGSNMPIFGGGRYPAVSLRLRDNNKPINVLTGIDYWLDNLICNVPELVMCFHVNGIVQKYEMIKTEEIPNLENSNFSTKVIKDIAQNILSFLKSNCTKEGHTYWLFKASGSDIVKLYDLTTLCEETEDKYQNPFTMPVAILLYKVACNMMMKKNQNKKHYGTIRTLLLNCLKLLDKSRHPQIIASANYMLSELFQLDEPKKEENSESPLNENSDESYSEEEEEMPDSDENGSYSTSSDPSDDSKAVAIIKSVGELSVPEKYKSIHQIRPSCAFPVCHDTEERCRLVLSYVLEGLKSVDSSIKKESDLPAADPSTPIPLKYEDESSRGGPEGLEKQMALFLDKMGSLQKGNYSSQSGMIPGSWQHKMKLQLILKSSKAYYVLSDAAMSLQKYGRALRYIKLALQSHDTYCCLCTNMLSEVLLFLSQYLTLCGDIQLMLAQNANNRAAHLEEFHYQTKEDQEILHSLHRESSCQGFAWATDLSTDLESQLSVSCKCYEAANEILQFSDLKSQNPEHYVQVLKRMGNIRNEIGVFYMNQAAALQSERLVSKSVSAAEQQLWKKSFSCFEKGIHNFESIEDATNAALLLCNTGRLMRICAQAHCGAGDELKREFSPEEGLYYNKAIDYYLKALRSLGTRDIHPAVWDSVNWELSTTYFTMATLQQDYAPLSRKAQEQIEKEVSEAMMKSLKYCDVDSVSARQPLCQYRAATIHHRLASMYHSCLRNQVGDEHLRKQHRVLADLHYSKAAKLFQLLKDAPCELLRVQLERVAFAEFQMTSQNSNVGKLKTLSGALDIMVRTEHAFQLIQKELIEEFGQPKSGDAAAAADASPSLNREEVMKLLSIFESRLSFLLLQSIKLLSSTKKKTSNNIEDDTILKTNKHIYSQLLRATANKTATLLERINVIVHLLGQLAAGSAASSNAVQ

compound: COc1ccc(Cn2ccc3ccc(C(=O)NO)cc32)cc1; experiment: dose-dependent thermal stabilisation call (2D-TPP, DLPTP, 10% FDR) (binary (1 = stabilised)); higher = stabilised by the compound; conditions: system: HL-60 intact cells; concentration range 0.04-10 µM

Target	dose-dependent thermal stabilisation call
ARRB1 (UniProt P49407)	inactive: 0
BUB1 (UniProt O43683)	inactive: 0
ATP7A (UniProt Q04656)	inactive: 0
BCAP29 (UniProt Q9UHQ4)	inactive: 0
C10ORF2 (UniProt Q96RR1)	inactive: 0
ATP5G2 (UniProt Q06055)	inactive: 0
C10ORF97 (UniProt Q9H8M7)	inactive: 0
ATP11C (UniProt Q8NB49)	inactive: 0
ATF6 (UniProt P18850)	inactive: 0
ATP5O (UniProt P48047)	inactive: 0
UniProt B3KNS4_HUMAN	inactive: 0
BLVRB (UniProt P30043)	inactive: 0
BIK (UniProt Q13323)	inactive: 0
ATP11A (UniProt P98196)	inactive: 0
BAX (UniProt Q07812)	inactive: 0
B3GNT2 (UniProt Q9NY97)	inactive: 0
BCLAF1 (UniProt Q9NYF8)	inactive: 0
AURKA (UniProt O14965)	inactive: 0
BIRC2 (UniProt Q13490)	inactive: 0
AZI1 (UniProt Q9UPN4)	inactive: 0
ATG5 (UniProt Q9H1Y0)	inactive: 0
ARNT (UniProt P27540)	inactive: 0
ATAD3B (UniProt Q5T9A4)	inactive: 0
BDH2 (UniProt Q9BUT1)	inactive: 0
ATR (UniProt Q13535)	inactive: 0
ATG7 (UniProt O95352)	inactive: 0
C10ORF137 (UniProt Q3B7T1)	inactive: 0

Another view of part of the listing above:
UniProt B3KNS4_HUMAN
  dose-dependent thermal stabilisation call: inactive: 0
BAX (UniProt Q07812)
  dose-dependent thermal stabilisation call: inactive: 0
